The experiment is described as follows: IkB Signaling. The following applies: ABC-DLBCL IkBa-CBG/CBR dual luciferase ratio (green luciferase fused to IkBa over red control in OCI-Ly3 lymphoma cells), 4 h. Put shortly:
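Curves were fitted separately to fusion (green), unfused (red) and ratio luminescence, then classed by r2, magnitude and activity. Cells: OCI-Ly3, 4 h compound plus doxycycline at 37C; 10 uM MG-132 defined full response.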

[1] abbreviates: measured here: control luc red channel unless noted.

Consider 62 compounds from PubChem BioAssay AID445 (National Center for Advancing Translational Sciences (NCATS), 2006).

The other results are listed elsewhere or left out. Shown are side measurements of this screen, not its main read-out; they come without a call. The list favours compounds with an active or inconclusive main result. The note in brackets gives the kind of curve behind each potency; many fits are weak.

Regarding `CCn1c(C(=O)N2CCc3ccccc3C2)cc2sccc21`, the AC50 (usually the concentration giving half of the maximal activity seen) under setting [1] was 1 µM [falling, partial curve]. The same measure, in the same setting: with `CCCCN(CCCC)CCNC(=O)CN1C(=O)CSc2ccc(S(=O)(=O)N3CCOCC3)cc21` the figure was 0.00631 µM [rising, full curve, poor fit]. With `CC(=O)c1cccc(Nc2cc(C)nc3nc(Cc4ccccc4)nn23)c1`, the AC50 under setting [1] is 10 µM [falling, partial curve].

For the compound `COc1ccc(NC(=O)c2c(C)oc3ccc(O)c(CN4CCN(Cc5ccccc5)CC4)c23)cc1Cl`, the AC50 under setting [1] is 12.6 µM [falling, partial curve]. On the same count and under the same terms, with `CCn1c(SCc2cccc(C(F)(F)F)c2)nnc1-c1ccco1` the figure was 7.94 µM [falling, partial curve]; with `O=C(CC1C(=O)N(c2ccccc2)C(=O)N1CCc1cccs1)Nc1ccc(F)cc1` (stereo not drawn), 39.8 µM [falling, single point]. Same read-out and setting: with `O=C(NCCN1CCN(c2cccc(Cl)c2)CC1)Nc1ccccc1C(F)(F)F` the figure was 12.6 µM [falling, partial curve]; with `Cc1ccc(CNc2nc(-c3ccco3)nn2S(=O)(=O)c2ccc3ccccc3c2)cc1`, 10 µM [falling, partial curve]; with `O=C(CSc1ncc(-c2ccccc2)[nH]1)Nc1ccc(Cl)cc1`, 12.6 µM [falling, partial curve]. Still for that read-out and setting: as for `Cc1ccc(S(=O)(=O)Nc2cc3c(cc2NCc2ccccc2)n(C)c(=O)n3C)cc1`, the figure is 25.1 µM [falling, single point]. For `O=C(Cn1c(=O)nc(-c2ccccc2)c2cc(Cl)ccc21)N1CCN(c2ccccc2F)CC1`, the AC50 under setting [1] was 15.8 µM [falling, partial curve, poor fit]. Same read-out and setting: with `Cc1c(C(=O)OCC(=O)c2ccc3c(c2)OCCO3)oc2ccccc12` the figure was 25.1 µM [falling, single point]. On the same count and under the same terms, with `CCOC(=O)c1sc2ccccc2c1S(=O)(=O)N1CCN(c2cccc(C)c2)C(C)C1` (stereo not drawn) the figure was 0.316 µM [falling, full curve, poor fit]. The same measure, in the same setting: with `Cc1ccccc1CNC(=O)c1oc2c(c1C)-c1[nH]ncc1CC2` the figure was 3.98 µM [falling, full curve]; with `Cc1ccc2nc(Cl)c3cc(C(=O)N4CCCCC4C)sc3c2c1` (stereo not drawn), 39.8 µM [falling, single point]; with `Cc1ccccc1Nc1nn2c(=O)c3ccc(C(=O)NCCc4ccc(Cl)cc4)cc3nc2s1`, 7.94 µM [falling, partial curve]. `COc1ccc(Cl)cc1NC(=O)CN1C(=O)C(C)(C)c2cc(S(=O)(=O)N3CCCCC3)ccc21`: the AC50 under setting [1] is 10 µM [falling, partial curve]. Same read-out and setting: with `CC(C)C1C(=O)Nc2ccc(S(=O)(=O)NCCc3ccc(Cl)cc3)cc21` (stereo not drawn) the figure was 31.6 µM [falling, partial curve]; with `Cc1cccc(-n2ncc(C(=O)N3CCN(c4ccc(C)cc4C)CC3)c2C2CCN(C(=O)OC(C)(C)C)CC2)c1`, 15.8 µM [falling, partial curve]; with `Cc1ccsc1CN(C(=O)c1oc2ccc(Br)cc2c1C)C1CCS(=O)(=O)C1` (stereo not drawn), 15.8 µM [falling, partial curve]. The same measure, in the same setting: as for `Cc1ccc(Cl)cc1N1CCN(C(=O)c2c(C)oc3ncnc(N4CCCCC4)c23)CC1`, the figure is 39.8 µM [falling, single point]. Consider `CCCCOc1cccc(C(=O)Nc2cc(NC(=O)c3ccco3)ccc2OC)c1`, for which the AC50 under setting [1] is 31.6 µM [falling, single point]. On the same count and under the same terms, as for `CCc1cc(C(=O)Nc2sc(C)c(CC)c2C#N)no1`, the figure is 0.00631 µM [rising, full curve, poor fit].

As for `CC(c1ccccc1)n1cc2c(c1-c1ccccc1Br)c(=O)n(C)c(=O)n2C` (stereo not drawn), under setting [1], the AC50 is 15.8 µM [falling, partial curve]. Same read-out and setting: as for `Cc1ccc(CNC(=O)c2c(O)nc3cc(C)ccn3c2=O)cc1`, the figure is 31.6 µM [falling, single point]; as for `COc1cccc(NC(=O)CCc2c(C)nc3nc(CNC(=O)c4cccc(F)c4)nn3c2C)c1`, 31.6 µM [falling, single point]. On the same count and under the same terms, with `Cc1oc2ccc(O)c(CN3CCCC3)c2c1C(=O)Nc1ccc(C(C)C)cc1` the figure was 31.6 µM [falling, single point]. With `CCCn1c(CNc2ccc(Br)cc2)nc2ccccc21`, the AC50 (measured here: IkB-luc green channel) is 15.8 µM [falling, partial curve] and the AC50 (measured here: control luc red channel) is 6.31 µM [falling, partial curve]. Take `C#CCOc1ccc(-c2nnc(Nc3ccc(NC(C)=O)cc3)c3ccccc23)cc1`: under setting [1], the AC50 was 25.1 µM [falling, single point]. Still for that read-out and setting: with `CN1C(=O)c2cccc3c(S(=O)(=O)NCc4ccco4)ccc1c23` the figure was 10 µM [rising, partial curve] [measured here: IkB-luc green channel]; with `O=C(Nc1ccc(Cc2ccc(NC(=O)C3CC3)c(O)c2)cc1O)C1CC1`, 12.6 µM [falling, partial curve]; with `CC(C)COc1ccc(C(=O)N2CCCCC2CCN2CCCCC2)cc1` (stereo not drawn), 39.8 µM [falling, single point]. For `COc1ccc(CCNC(=O)c2cnn(-c3cccc(C)c3)c2C2CCN(C(=O)OC(C)(C)C)CC2)cc1OC`, under setting [1], the concentration at half-maximal activity (AC50) is 39.8 µM [falling, single point]. Same read-out and setting: as for `Cc1cccc(-c2nnn3c2nc(NCc2ccc4c(c2)OCO4)c2ccccc23)c1`, the figure is 1.58 µM [falling, full curve]; as for `COc1ccccc1C1C(C(=O)c2sc(C)nc2C)=C(O)C(=O)N1CCN1CCOCC1` (stereo not drawn), 15.8 µM [falling, partial curve]. Still for that read-out and setting: as for `COC(=O)c1c(NC(=O)c2nc3ccccc3s2)sc2c1CCN(C(C)=O)C2`, the figure is 6.31 µM [falling, partial curve]; as for `COc1ccc(-n2c(SCC(=O)N3CCc4ccccc43)nc3c([nH]c4ccccc43)c2=O)cc1`, 0.316 µM [rising, partial curve]; as for `CCOC(=O)C1CCCN(C(=O)Cn2ncc3c(C)n(Cc4ccccc4Cl)c(C)c3c2=O)C1` (stereo not drawn), 12.6 µM [falling, partial curve]. Same read-out and setting: as for `CCCc1nc2ccccc2n1CC(O)COc1ccc(C(=O)OC)cc1` (stereo not drawn), the figure is 31.6 µM [falling, single point]; as for `O=C(Nc1ccc(Cl)cc1F)c1cnc2sc(N3CCOCC3)nn2c1=O`, 3.98 µM [rising, full curve]; as for `CCC1CCCCN1S(=O)(=O)c1ccc(C(=O)Nc2sc3c(c2C(N)=O)CCC3)cc1` (stereo not drawn), 25.1 µM [falling, partial curve]. Consider `CC(C)(C)OC(=O)N1CCC(c2c(C(=O)N3CCN(c4ccccn4)CC3)cnn2-c2ccccc2)CC1`, for which the AC50 under setting [1] is 25.1 µM [falling, single point]. Same read-out and setting: with `COc1ccc(-c2nc(C)c(CCNC(=O)c3cccs3)s2)cc1OC` the figure was 0.794 µM [rising, partial curve]; with `Cc1ccc(OCC(=O)NCC2(N(C)C)CCCCC2)cc1C`, 31.6 µM [falling, single point]. Same read-out and setting: with `COc1ccccc1N1CCN(CC(=O)Nc2ccc(C)c(F)c2)CC1` the figure was 12.6 µM [falling, partial curve]. On the same count and under the same terms, with `CCCOc1ccc(C(=O)NCC2OCCc3ccccc32)cc1` (stereo not drawn) the figure was 31.6 µM [falling, single point]; with `Cc1ccc(CNc2oc(-c3ccc(COc4ccc(C)cc4)o3)nc2C#N)cc1`, 0.0501 µM [falling, full curve]. Turning to `Cc1ccc(NC(=O)c2c(C)nc3sc(C(=O)Nc4ccc(F)cc4)c(N)c3c2-c2ccc(C)o2)c(C)c1`, under setting [1], the AC50 is 5.01 µM [falling, partial curve]. Still for that read-out and setting: as for `Cc1ccc2c(c1)-c1c(cnn1CC(=O)N1CCN(c3ccccc3F)CC1)CO2`, the figure is 25.1 µM [falling, single point]. In the case of `Cc1oc2ncn(CC(C)C)c(=O)c2c1C(=O)NCCc1ccccc1`, the AC50 under setting [1] was 31.6 µM [falling, partial curve, poor fit]. Consider `Cc1ccc(-c2nc(CNC(=O)Nc3ccccc3)c(C)o2)cc1`, for which, under setting [1], the AC50 was 10 µM [falling, partial curve]. As for `c1ccc(Cn2c(SCc3nc4ccccc4s3)nnc2-c2ccco2)cc1`, the AC50 under setting [1] is 15.8 µM [falling, partial curve]. For `CCN(CC)C(=O)CSc1nc2ccsc2c(=O)n1Cc1ccccc1Cl`, the AC50 under setting [1] is 6.31 µM [falling, partial curve]. On the same count and under the same terms, as for `CCS(=O)(=O)n1nc(NCc2cccc(OC)c2)nc1NCc1cccc(OC)c1`, the figure is 39.8 µM [falling, single point]; as for `Cc1cc(C)n2c(Nc3ccc(C(C)C)cc3)c(-c3ccsc3)nc2n1`, 12.6 µM [falling, partial curve]; as for `COCCNC(=O)Cn1c(=O)n(CCCCCC(=O)NCc2ccccc2Cl)c(=O)c2sccc21`, 10 µM [falling, partial curve].

Take `Cc1cccc(Cn2c(SCc3ccc(C(=O)NCc4ccccc4F)cc3)nc3ccncc32)c1`: the AC50 under setting [1] is 20 µM [falling, partial curve]. For the compound `Cc1cc(N2CCN(S(=O)(=O)c3ccc(Cl)cc3)CC2)c2ccccc2n1`, the AC50 under setting [1] was 3.16 µM [falling, full curve]. `Cc1c(-c2cccc(NC(=O)Nc3ccc(Cl)cc3)c2)nc2ncccn12`: under setting [1], the AC50 is 25.1 µM [falling, partial curve]. On the same count and under the same terms, as for `CC1CCCCN1C(=O)Cn1ncc2c3ccccc3n(Cc3ccccc3F)c2c1=O` (stereo not drawn), the figure is 15.8 µM [falling, partial curve]; as for `COc1ccc(CN(C(=O)c2cc3ccccc3oc2=O)C2CCS(=O)(=O)C2)cc1OC` (stereo not drawn), 20 µM [falling, partial curve, poor fit]; as for `Cc1ccc(C(=O)COC(=O)C(Cc2c[nH]c3ccccc23)NC(=O)c2ccc(C(C)(C)C)cc2)cc1` (stereo not drawn), 0.794 µM [falling, full curve, poor fit].
